Measured values reported in patent US20190169308A1.
Results are given in words; binding and its absence hold for the method and conditions named. Some results given as binding are weak or reduced against the parent protein; the word gives no strength.

T1: cynomolgus 5T4 on transfected CHO cells (Macaca mulatta (cynomolgus)) (UniProt F7CT46)
T1 sequence: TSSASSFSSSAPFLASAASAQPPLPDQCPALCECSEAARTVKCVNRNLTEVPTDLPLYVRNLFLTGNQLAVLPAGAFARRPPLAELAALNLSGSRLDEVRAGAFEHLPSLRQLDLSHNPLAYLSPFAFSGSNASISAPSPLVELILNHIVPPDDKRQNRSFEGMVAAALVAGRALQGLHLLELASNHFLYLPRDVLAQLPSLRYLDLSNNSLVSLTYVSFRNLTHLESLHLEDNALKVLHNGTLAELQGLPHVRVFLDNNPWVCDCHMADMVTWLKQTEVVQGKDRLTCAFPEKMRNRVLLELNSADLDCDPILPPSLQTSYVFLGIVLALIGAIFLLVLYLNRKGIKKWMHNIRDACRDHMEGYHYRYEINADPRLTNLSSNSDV


What was measured:
[1] = target: T1, cynomolgus 5T4 on transfected CHO cells (Macaca mulatta (cynomolgus)); assay: flow cytometry on CHO cells transfected with cynomolgus 5T4, anti-IgG(Fc)-PE, MFI normalised per antibody
[2] = target: T1, cynomolgus 5T4 on transfected CHO cells (Macaca mulatta (cynomolgus)); assay: flow cytometry, cynomolgus 5T4-transfected CHO cells

Binder | binding [1] | binding [2]
1206/1207 (antibody, V domains shown) VH: EVQLLESGGGLVQPGGSLRLSCAASGFTFSGSSMSWVRQAPGKGLEWVSSIYYSGSGTYYADSVKGRFTISRDNSKNTLYLQMNSLRAEDTAVYYCARYGRNVHPYNLDYWGQGTLVTVSS VL: DIQMTQSPSSLSASVGDRVTITCRASQSISSYLNWYQQKPGKAPKLLIYAASSLQSGVPSRFSGSGSGTDFTLTISSLQPEDFATYYCQQGYYYLPTFGQGTKLEIK | binds | binds
1212/1213 (antibody, V domains shown) VH: EVQLLESGGGLVQPGGSLRLSCAASGFTFSSYAMSWVRQAPGKGLEWVSYISSYGGYTSYADSVKGRFTISRDNSKNTLYLQMNSLRAEDTAVYYCARYHSGVLDYWGQGTLVTVSS VL: DIQMTQSPSSLSASVGDRVTITCRASQSISSYLNWYQQKPGKAPKLLIYAASSLQSGVPSRFSGSGSGTDFTLTISSLQPEDFATYYCQQYYYHYLLTFGQGTKLEIK | binds | binds
